# The exact form of at least one protein or probe is not confirmed.
# The chains behind the UniProt entries cited, without tags or fusion partners. Where a name states a change or a piece, a line headed by the entry shows the natural chain unless it says otherwise.
# UniProt Q96B42: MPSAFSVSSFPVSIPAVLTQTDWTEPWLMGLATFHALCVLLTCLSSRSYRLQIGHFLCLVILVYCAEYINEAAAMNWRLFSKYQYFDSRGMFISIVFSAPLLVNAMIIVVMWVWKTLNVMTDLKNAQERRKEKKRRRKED
# Target: TMEM18 (UniProt Q96B42)
# Experiment: competition with a labelled probe
# Details: against 400 nM biotin-(GCT)8, competitor 1 and 2.5 uM, shift not detectable at about 6-fold excess; EMSA: 10 mM Tris pH 7.4, 50 mM KCl, 1 mM DTT, 0.05% DDM, 30 min, RT; 4-20% TBE gel in 0.5x TBE; recombinant protein; residues 1-140; protein details: N-terminal Flag-His8
sequence,measurement,value
GCTGCTGCTGCTGCTGCTGCTGCT (double strand) [unlabelled (GCT)8],binding result,binds

# — paper PMC3182218
